Reference: US12419871B2, “Biomolecules involved in Alzheimer's disease” (ELECTROPHORETICS LIMITED, priority 2015, dated 2025)

B1: Q9P227 (protein, UniProt Q9P227 1-1491, looked up)
chain: MNGVAFCLVGIPPRPEPRPPQLPLGPRDGCSPRRPFPWQGPRTLLLYKSPQDGFGFTLRHFIVYPPESAVHCSLKEEENGGRGGGPSPRYRLEPMDTIFVKNVKEDGPAHRAGLRTGDRLVKVNGESVIGKTYSQVIALIQNSDDTLELSIMPKDEDILQLAYSQDAYLKGNEPYSGEARSIPEPPPICYPRKTYAPPARASTRATMVPEPTSALPSDPRSPAAWSDPGLRVPPAARAHLDNSSLGMSQPRPSPGAFPHLSSEPRTPRAFPEPGSRVPPSRLECQQALSHWLSNQVPRRAGERRCPAMAPRARSASQDRLEEVAAPRPWPCSTSQDALSQLGQEGWHRARSDDYLSRATRSAEALGPGALVSPRFERCGWASQRSSARTPACPTRDLPGPQAPPPSGLQGLDDLGYIGYRSYSPSFQRRTGLLHALSFRDSPFGGLPTFNLAQSPASFPPEASEPPRVVRPEPSTRALEPPAEDRGDEVVLRQKPPTGRKVQLTPARQMNLGFGDESPEPEASGRGERLGRKVAPLATTEDSLASIPFIDEPTSPSIDLQAKHVPASAVVSSAMNSAPVLGTSPSSPTFTFTLGRHYSQDCSSIKAGRRSSYLLAITTERSKSCDDGLNTFRDEGRVLRRLPNRIPSLRMLRSFFTDGSLDSWGTSEDADAPSKRHSTSDLSDATFSDIRREGWLYYKQILTKKGKKAGSGLRQWKRVYAALRARSLSLSKERREPGPAAAGAAAAGAGEDEAAPVCIGSCLVDISYSETKRRHVFRLTTADFCEYLFQAEDRDDMLGWIRAIRENSRAEGEDPGCANQALISKKLNDYRKVSHSSGPKADSSPKGSRGLGGLKSEFLKQSAARGLRTQDLPAGSKDDSAAAPKTPWGINIIKKNKKAAPRAFGVRLEECQPATENQRVPLIVAACCRIVEARGLESTGIYRVPGNNAVVSSLQEQLNRGPGDINLQDERWQDLNVISSLLKSFFRKLPEPLFTDDKYNDFIEANRIEDARERMRTLRKLIRDLPGHYYETLKFLVGHLKTIADHSEKNKMEPRNLALVFGPTLVRTSEDNMTDMVTHMPDRYKIVETLIQHSDWFFSDEEDKGERTPVGDKEPQAVPNIEYLLPNIGRTVPPGDPGSDSTTCSSAKSKGSWAPKKEPYAREMLAISFISAVNRKRKKRREARGLGSSTDDDSEQEAHKPGAGATAPGTQERPQGPLPGAVAPEAPGRLSPPAAPEERPAADTRSIVSGYSTLSTMDRSVCSGASGRRAGAGDEADDERSELSHVETDTEGAAGAGPGGRLTRRPSFSSHHLMPCDTLARRRLARGRPDGEGAGRGGPRAPEPPGSASSSSQESLRPPAAALASRPSRMEALRLRLRGTADDMLAVRLRRPLSPETRRRRSSWRRHTVVVQSPLTDLNFNEWKELGGGGPPEPAGARAHSDNKDSGLSSLESTKARAPSSAASQPPAPGDTGSLQSQPPRRSAASRLHQCL
modifications: full-length
B2: Q9Y3A5 (protein, UniProt Q9Y3A5 1-250, looked up)
chain: MSIFTPTNQIRLTNVAVVRMKRAGKRFEIACYKNKVVGWRSGVEKDLDEVLQTHSVFVNVSKGQVAKKEDLISAFGTDDQTEICKQILTKGEVQVSDKERHTQLEQMFRDIATIVADKCVNPETKRPYTVILIERAMKDIHYSVKTNKSTKQQALEVIKQLKEKMKIERAHMRLRFILPVNEGKKLKEKLKPLIKVIESEDYGQQLEIVCLIDPGCFREIDELIKKETKGKGSLEVLNLKDVEEGDEKFE
modifications: full-length
B3: O15034 (protein, UniProt O15034 1-1052, looked up)
chain: MREAAERRQQLQLEHDQALAVLSAKQQEIDLLQKSKVRELEEKCRTQSEQFNLLSRDLEKFRQHAGKIDLLGGSAVAPLDISTAPSKPFPQFMNGLATSLGKGQESAIGGSSAIGEYIRPLPQPGDRPEPLSAKPTFLSRSGSARCRSESDMENERNSNTSKQRYSGKVHLCVARYSYNPFDGPNENPEAELPLTAGKYLYVYGDMDEDGFYEGELLDGQRGLVPSNFVDFVQDNESRLASTLGNEQDQNFINHSGIGLEGEHILDLHSPTHIDAGITDNSAGTLDVNIDDIGEDIVPYPRKITLIKQLAKSVIVGWEPPAVPPGWGTVSSYNVLVDKETRMNLTLGSRTKALIEKLNMAACTYRISVQCVTSRGSSDELQCTLLVGKDVVVAPSHLRVDNITQISAQLSWLPTNSNYSHVIFLNEEEFDIVKAARYKYQFFNLRPNMAYKVKVLAKPHQMPWQLPLEQREKKEAFVEFSTLPAGPPAPPQDVTVQAGVTPATIRVSWRPPVLTPTGLSNGANVTGYGVYAKGQRVAEVIFPTADSTAVELVRLRSLEAKGVTVRTLSAQGESVDSAVAAVPPELLVPPTPHPRPAPQSKPLASSGVPETKDEHLGPHARMDEAWEQSRAPGPVHGHMLEPPVGPGRRSPSPSRILPQPQGTPVSTTVAKAMAREAAQRVAESSRLEKRSVFLERSSAGQYAASDEEDAYDSPDFKRRGASVDDFLKGSELGKQPHCCHGDEYHTESSRGSDLSDIMEEDEEELYSEMQLEDGGRRRPSGTSHNALKILGNPASAGRVDHMGRRFPRGSAGPQRSRPVTVPSIDDYGRDRLSPDFYEESETDPGAEELPARIFVALFDYDPLTMSPNPDAAEEELPFKEGQIIKVYGDKDADGFYRGETCARLGLIPCNMVSEIQADDEEMMDQLLRQGFLPLNTPVEKIERSRRSGRRHSVSTRRMVALYDYDPRESSPNVDVEAELTFCTGDIITVFGEIDEDGFYYGELNGQKGLVPSNFLEEVPDDVEVYLSDAPSHYSQDTPMRSKAKRKKSVHFTP
modifications: full-length
B4: P05060 (protein, UniProt P05060 1-677, looked up)
chain: MQPTLLLSLLGAVGLAAVNSMPVDNRNHNEGMVTRCIIEVLSNALSKSSAPPITPECRQVLKTSRKDVKDKETTENENTKFEVRLLRDPADASEAHESSSRGEAGAPGEEDIQGPTKADTEKWAEGGGHSRERADEPQWSLYPSDSQVSEEVKTRHSEKSQREDEEEEEGENYQKGERGEDSSEEKHLEEPGETQNAFLNERKQASAIKKEELVARSETHAAGHSQEKTHSREKSSQESGEETGSQENHPQESKGQPRSQEESEEGEEDATSEVDKRRTRPRHHHGRSRPDRSSQGGSLPSEEKGHPQEESEESNVSMASLGEKRDHHSTHYRASEEEPEYGEEIKGYPGVQAPEDLEWERYRGRGSEEYRAPRPQSEESWDEEDKRNYPSLELDKMAHGYGEESEEERGLEPGKGRHHRGRGGEPRAYFMSDTREEKRFLGEGHHRVQENQMDKARRHPQGAWKELDRNYLNYGEEGAPGKWQQQGDLQDTKENREEARFQDKQYSSHHTAEKRKRLGELFNPYYDPLQWKSSHFERRDNMNDNFLEGEEENELTLNEKNFFPEYNYDWWEKKPFSEDVNWGYEKRNLARVPKLDLKRQYDRVAQLDQLLHYRKKSAEFPDFYDSEEPVSTHQEAENEKDRADQTVLTEDEKKELENLAAMDLELQKIAEKFSQRG
modifications: full-length
B5: O75326 (protein, UniProt O75326 1-666, looked up)
chain: MTPPPPGRAAPSAPRARVPGPPARLGLPLRLRLLLLLWAAAASAQGHLRSGPRIFAVWKGHVGQDRVDFGQTEPHTVLFHEPGSSSVWVGGRGKVYLFDFPEGKNASVRTVNIGSTKGSCLDKRDCENYITLLERRSEGLLACGTNARHPSCWNLVNGTVVPLGEMRGYAPFSPDENSLVLFEGDEVYSTIRKQEYNGKIPRFRRIRGESELYTSDTVMQNPQFIKATIVHQDQAYDDKIYYFFREDNPDKNPEAPLNVSRVAQLCRGDQGGESSLSVSKWNTFLKAMLVCSDAATNKNFNRLQDVFLLPDPSGQWRDTRVYGVFSNPWNYSAVCVYSLGDIDKVFRTSSLKGYHSSLPNPRPGKCLPDQQPIPTETFQVADRHPEVAQRVEPMGPLKTPLFHSKYHYQKVAVHRMQASHGETFHVLYLTTDRGTIHKVVEPGEQEHSFAFNIMEIQPFRRAAAIQTMSLDAERRKLYVSSQWEVSQVPLDLCEVYGGGCHGCLMSRDPYCGWDQGRCISIYSSERSVLQSINPAEPHKECPNPKPDKAPLQKVSLAPNSRYYLSCPMESRHATYSWRHKENVEQSCEPGHQSPNCILFIENLTAQQYGHYFCEAQEGSYFREAQHWQLLPEDGIMAEHLLGHACALAASLWLGVLPTLTLGLLVH
modifications: full-length
B6: P34897 (protein, UniProt P34897 1-504, looked up)
chain: MLYFSLFWAARPLQRCGQLVRMAIRAQHSNAAQTQTGEANRGWTGQESLSDSDPEMWELLQREKDRQCRGLELIASENFCSRAALEALGSCLNNKYSEGYPGKRYYGGAEVVDEIELLCQRRALEAFDLDPAQWGVNVQPYSGSPANLAVYTALLQPHDRIMGLDLPDGGHLTHGYMSDVKRISATSIFFESMPYKLNPKTGLIDYNQLALTARLFRPRLIIAGTSAYARLIDYARMREVCDEVKAHLLADMAHISGLVAAKVIPSPFKHADIVTTTTHKTLRGARSGLIFYRKGVKAVDPKTGREIPYTFEDRINFAVFPSLQGGPHNHAIAAVAVALKQACTPMFREYSLQVLKNARAMADALLERGYSLVSGGTDNHLVLVDLRPKGLDGARAERVLELVSITANKNTCPGDRSAITPGGLRLGAPALTSRQFREDDFRRVVDFIDEGVNIGLEVKSKTAKLQDFKSFLLKDSETSQRLANLRQRVEQFARAFPMPGFDEH
modifications: full-length
B7: O75494 (protein, UniProt O75494 1-262, looked up)
chain: MSRYLRPPNTSLFVRNVADDTRSEDLRREFGRYGPIVDVYVPLDFYTRRPRGFAYVQFEDVRDAEDALHNLDRKWICGRQIEIQFAQGDRKTPNQMKAKEGRNVYSSSRYDDYDRYRRSRSRSYERRRSRSRSFDYNYRRSYSPRNSRPTGRPRRSRSHSDNDRFKHRNRSFSRSKSNSRSRSKSQPKKEMKAKSRSRSASHTKTRGTSKTDSKTHYKSGSRYEKESRKKEPPRSKSQSRSQSRSRSKSRSRSWTSPKSSGH
modifications: full-length
B8: Q6ZV89 (protein, UniProt Q6ZV89 1-423, looked up)
chain: MQKAGAGGRRASDCGLAPHRPRCITKFAQYVGSFPVDDLDTQESVWLVQQQLWALKDCPRRRAVILKFSLQGLKIYSGEGEVLLMAHALRRILYSTWCPADCQFAFMARNPRSPASKLFCHLFVGSQPGEVQILHLLLCRSFQLAYLLQHPEERAQPEPCPGPTGEVPLKPLSSSGGLVREPFGRDQLSQNVHALVSFRRLPAEGLVGSGKELPESEGRARHARLGNPYCSPTLVRKKAIRSKVIRSGAYRGCTYETQLQLSAREAFPAAWEAWPRGPGGHSCLVESEGSLTENIWAFAGISRPCALALLRRDVLGAFLLWPELGASGQWCLSVRTQCGVVPHQVFRNHLGRYCLEHLPAEFPSLEALVENHAVTERSLFCPLDMGRLNPTYEEQDCGPPGRPPRTLRPLSHAKSEAELQGLG
modifications: full-length

Assay: TMTcalibrator quantification of regulated proteins in AD CSF versus control
Set-up: species or system human
Conditions: CSF of AD patient versus control; non-modified peptides of each protein summed for three control and three AD cases

| Molecule | Log2 AD/Control |
| --- | --- |
| B1 | 0.88 |
| B2 | 0.86 |
| B3 | 2.48 |
| B4 | 0.80 |
| B5 | 0.85 |
| B6 | −1.81 |
| B7 | 0.79 |
| B8 | −0.80 |
